# According to PubChem BioAssay AID2685 (National Center for Advancing Translational Sciences (NCATS), 2010):
# The list shows a part of the results. Further columns of the screen follow, without active or inactive calls. Most of these compounds were active or inconclusive in the main read-out, so they are no random draw. Potencies come from curve fits of mixed quality, noted in brackets.
# Experiment: qHTS Assay for Lipid Storage Modulators in Drosophila S3 Cells;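 for cell number change: cells counted by Cell Tracker Red CMTPX staining in the red channel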
# Conditions: BODIPY lipid droplet fluorescence, 18-24 h; for cell number change: measured here: cell count max response, cells fed with added oleic acid
# How it was run: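 Drosophila S3 cells loaded with oleic acid (400 uM, as added) and compounds at several concentrations; lipid droplets imaged by 488-nm laser-scanning cytometry, 500–530 nm intensity and object ratio to cell channel. Percent activity normalized to 20 uM Triacsin C.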
# [1] = measured here: lipid fluorescence (Fed channel) AC50, cells fed with added oleic acid
# [2] = measured here: cell number channel AC50, cells fed with added oleic acid
Structure (SMILES),cell number change [%],AC50 [1],AC50 [2]
COc1cccc(-c2cc(C(=O)NN3CCOCC3)c3ccccc3n2)c1,1.57,"29.1 µM [falling, single point]",–
CCN(CC1COc2ccccc2O1)C(=S)NCCCN(C)C (centres undefined),-3.65,"29.1 µM [falling, single point]","0.092 µM [falling, full curve, poor fit]"
O=C(NC1=NCCS1)c1sc2ccccc2c1Cl,–,"0.461 µM [rising, single point]",–
COc1cc(C(=O)NCCc2ccc(S(=O)(=O)N3CCCC3)cc2)cc(OC)c1OC,-5.87,"3.66 µM [falling, full curve, poor fit]",–
COc1ccccc1S(=O)(=O)Cc1ccc(C(=O)NCc2cccnc2)o1,-7.29,"0.058 µM [rising, full curve]",–
CN(C)c1ccc(CN2CCCC(O)C2)cc1 (centres undefined),6.19,–,–
Fc1ccc(CN2CCCCCCC2)cc1,-52.7,"16.4 µM [falling, partial curve]","16.4 µM [falling, partial curve]"
CC(C)(C)OC(=O)N/N=C/c1ccc(Br)cc1,-36.5,"29.1 µM [falling, single point]",–
Cn1nnnc1SCC(=O)Nc1cccc([N+](=O)[O-])c1,–,"20.6 µM [rising, single point]",–
CCOc1ccc(NCC(=O)Nc2ccc(C)cc2C)cc1,6.55,"1.3 µM [rising, full curve]",–
O=C(COc1ccc(Cl)cc1Cl)N/N=C/c1cccnc1,-42.3,–,–
CC(=O)Nc1ccc(NC(=O)COC(=O)c2cc(S(=O)(=O)N(C)C)ccc2N2CCCC2)cc1,–,"29.1 µM [rising, single point]",–
COc1ccc(CNc2ncccc2[N+](=O)[O-])cc1,–,"29.1 µM [rising, single point]",–
O=[N+]([O-])c1ccc(N2CCOCC2)nc1,-6.59,"29.1 µM [rising, single point]",–
Cc1cc(=O)[nH]c(-c2ccccc2)n1,-40.9,"14.6 µM [falling, partial curve]","16.4 µM [falling, partial curve]"
Cc1[nH]c2ccccc2c1C(=O)CN1CCSCC1,0.485,"0.092 µM [falling, full curve, poor fit]",–
CCOC(=O)c1sc(NC(=O)COC(=O)c2ccco2)nc1C,-6.29,–,–
COc1ccccc1/C=C/CN1CCCC(CCC(=O)NCc2ccc(F)c(F)c2)C1 (centres undefined),7.28,"5.17 µM [rising, full curve, poor fit]",–
CCOC(=O)C1=C(CSc2nc(C)cc(C)c2C#N)OC(N)=C(C#N)C1c1ccccc1 (centres undefined),17.9,"2.31 µM [rising, full curve]",–
COc1ccc2c(c1)c1ccc3c(c1n2C)C(=O)C=CC3=O,-65.7,"8.2 µM [falling, partial curve]","9.2 µM [falling, partial curve]"
CCC(O)c1nc2ccccc2n1CCc1ccccc1 (centres undefined),–,–,"0.116 µM [falling, full curve, poor fit]"

Structure (SMILES),cell number change [%],AC50 [1],AC50 [2]
COc1ccc(Cl)cc1NC(=O)CSc1nnc(CN2CCOCC2)n1-c1ccc(Cl)cc1,-5.83,"0.092 µM [rising, full curve, poor fit]","0.082 µM [rising, full curve]"
COc1cc([N+](=O)[O-])ccc1NC(=O)CCS(=O)(=O)c1ccc2c(c1)n(C)c(=O)c(=O)n2C,10.9,–,–
Cc1nc(-c2ccccc2O)n(-c2ccccc2)n1,–,–,"1.46 µM [rising, single point]"
Cc1ccc(C(=O)CCC(=O)Nc2cccc(C)c2)cc1,10.5,"3.66 µM [rising, full curve]",–
O=C(NCCC1=CCCCC1)c1cc(-c2ccccn2)nc2ccccc12,-24.4,"29.1 µM [falling, single point]",–
O=C(C1CC(=O)N(c2ccccc2)C1)N1CCN(c2ccccc2)CC1 (centres undefined),-3.76,"29.1 µM [rising, single point]",–
Cn1cnc(NCc2ccccc2)c1[N+](=O)[O-],-2.67,–,–
COCCCNCCCOc1ccc(C(C)(C)c2ccccc2)cc1,–,–,"2.59 µM [falling, partial curve, poor fit]"
COc1ccc(NC2=NC(=S)N(c3cccc(C)c3)C23CCCCC3)cc1,4.06,–,"5.8 µM [falling, single point]"
Cc1c(C(=O)OCC(=O)NCc2ccccc2)oc2ccccc12,–,–,"7.31 µM [falling, partial curve, poor fit]"
O=C(O)CCCCCNC(=O)c1ccncc1,157,–,–
CC1CCc2c(nc3ncnn3c2N2CCN(c3ccccc3)CC2)C1 (centres undefined),–,"0.517 µM [rising, partial curve]","0.651 µM [rising, partial curve]"
CCN(CCNC(=O)Cn1c(=O)sc2ccccc21)c1ccccc1,-35.6,"29.1 µM [falling, single point]","16.4 µM [falling, single point]"
CC(=O)Cc1nsc(NC(=O)c2ccc(COc3ccccc3Cl)o2)n1,4.78,–,–
COc1cc(NC(=S)NCCSc2ccc(C)cc2)cc(OC)c1,14.5,–,"0.0103 µM [rising, full curve, poor fit]"
O/N=C1/CCc2nonc2/C1=N/O,-65.4,"4.11 µM [falling, full curve]","0.731 µM [falling, full curve]"
Cc1ccccc1NC(=O)C(=O)NCCc1ccccc1,64.2,"4.11 µM [rising, partial curve]","0.92 µM [rising, full curve]"
COc1cc(CC(NC(C)=O)C(=O)NC2CCN(C(=O)C3CC3)CC2)cc(OC)c1 (centres undefined),-7.69,–,"2.31 µM [falling, partial curve, poor fit]"
CCOC(=O)c1nc(Nc2ccccc2)c2ccccc2n1,–,"2.06 µM [rising, partial curve]","1.84 µM [rising, partial curve]"
CCOc1ccc(S(=O)(=O)NCc2ccccc2OC)cc1,59.9,–,–

# In the list so far, these contain two or more sulfur atoms.
Structure (SMILES),cell number change [%],AC50 [1],AC50 [2]
O=C(NC1=NCCS1)c1sc2ccccc2c1Cl,–,"0.461 µM [rising, single point]",–
COc1cc(NC(=S)NCCSc2ccc(C)cc2)cc(OC)c1,14.5,–,"0.0103 µM [rising, full curve, poor fit]"
